# Paper PMC7794802, “The Interactome of Cancer-Related Lysyl Oxidase and Lysyl Oxidase-Like Proteins” (Cancers, 2020)
# Protein sequences, listed by entry. Tags and fused reporters are not part of them. Lines headed by an entry give the natural chain unless they say otherwise; changes in a name come on top.
# UniProt P39060: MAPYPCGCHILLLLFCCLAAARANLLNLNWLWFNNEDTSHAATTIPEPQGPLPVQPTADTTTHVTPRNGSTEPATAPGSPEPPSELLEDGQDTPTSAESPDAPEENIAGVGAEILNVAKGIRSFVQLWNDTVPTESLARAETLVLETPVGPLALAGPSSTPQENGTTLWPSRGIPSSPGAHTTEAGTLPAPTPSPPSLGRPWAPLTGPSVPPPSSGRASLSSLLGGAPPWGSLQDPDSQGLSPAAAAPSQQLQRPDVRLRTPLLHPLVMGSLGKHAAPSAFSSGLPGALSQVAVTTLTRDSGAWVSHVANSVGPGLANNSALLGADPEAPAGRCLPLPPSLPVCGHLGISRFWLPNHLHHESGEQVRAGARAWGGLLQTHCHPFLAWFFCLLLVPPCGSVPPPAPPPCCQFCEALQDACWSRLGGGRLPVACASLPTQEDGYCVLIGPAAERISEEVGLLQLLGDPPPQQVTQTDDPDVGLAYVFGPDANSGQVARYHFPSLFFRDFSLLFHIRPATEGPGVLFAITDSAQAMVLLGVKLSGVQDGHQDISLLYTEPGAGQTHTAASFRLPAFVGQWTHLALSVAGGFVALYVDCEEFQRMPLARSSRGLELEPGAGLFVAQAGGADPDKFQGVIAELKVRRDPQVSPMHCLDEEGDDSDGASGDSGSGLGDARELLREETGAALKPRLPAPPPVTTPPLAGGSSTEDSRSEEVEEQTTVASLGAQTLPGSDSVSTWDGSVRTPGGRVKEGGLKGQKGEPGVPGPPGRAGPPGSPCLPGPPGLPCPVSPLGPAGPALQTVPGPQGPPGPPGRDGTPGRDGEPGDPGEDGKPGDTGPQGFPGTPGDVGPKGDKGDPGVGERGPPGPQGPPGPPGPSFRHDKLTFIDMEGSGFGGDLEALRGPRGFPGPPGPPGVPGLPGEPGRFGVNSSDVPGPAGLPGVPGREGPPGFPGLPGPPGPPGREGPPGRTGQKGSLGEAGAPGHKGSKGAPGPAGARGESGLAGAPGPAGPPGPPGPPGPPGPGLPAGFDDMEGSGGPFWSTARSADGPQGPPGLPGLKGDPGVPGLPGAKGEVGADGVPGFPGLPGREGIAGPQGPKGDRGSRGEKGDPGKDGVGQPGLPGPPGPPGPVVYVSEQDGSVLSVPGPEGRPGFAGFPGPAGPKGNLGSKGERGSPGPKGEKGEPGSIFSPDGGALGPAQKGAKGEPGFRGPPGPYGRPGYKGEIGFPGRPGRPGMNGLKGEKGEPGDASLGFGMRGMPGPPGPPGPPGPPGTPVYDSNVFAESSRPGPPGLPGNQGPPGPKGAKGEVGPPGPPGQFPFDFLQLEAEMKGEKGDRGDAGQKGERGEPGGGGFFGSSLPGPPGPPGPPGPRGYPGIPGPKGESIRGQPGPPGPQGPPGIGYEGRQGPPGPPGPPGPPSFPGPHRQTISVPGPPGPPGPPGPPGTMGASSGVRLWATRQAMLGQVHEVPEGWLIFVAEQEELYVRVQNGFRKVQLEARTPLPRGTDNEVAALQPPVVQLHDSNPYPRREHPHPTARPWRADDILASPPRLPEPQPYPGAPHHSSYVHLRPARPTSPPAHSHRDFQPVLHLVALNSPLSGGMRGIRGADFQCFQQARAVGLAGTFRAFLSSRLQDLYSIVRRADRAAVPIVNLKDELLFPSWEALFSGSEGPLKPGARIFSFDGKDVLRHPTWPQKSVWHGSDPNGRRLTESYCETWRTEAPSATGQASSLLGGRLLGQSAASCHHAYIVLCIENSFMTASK
# UniProt P09038: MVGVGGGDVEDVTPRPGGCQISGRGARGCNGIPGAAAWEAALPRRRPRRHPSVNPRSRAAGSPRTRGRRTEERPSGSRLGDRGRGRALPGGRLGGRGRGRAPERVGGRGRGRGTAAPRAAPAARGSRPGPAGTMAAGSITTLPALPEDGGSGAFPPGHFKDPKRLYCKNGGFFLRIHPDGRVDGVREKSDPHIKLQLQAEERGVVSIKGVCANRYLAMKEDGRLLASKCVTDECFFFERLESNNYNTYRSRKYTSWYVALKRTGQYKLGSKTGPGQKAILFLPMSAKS
# B1: LOXL2 N-terminal scavenger receptor cysteine-rich domains SRCR 1-2 (residues 58-302) (domain or fragment, UniProt Q9Y4K0 58-302, looked up)
# chain: LRLAGQKRKHSEGRVEVYYDGQWGTVCDDDFSIHAAHVVCRELGYVEAKSWTASSSYGKGEGPIWLDNLHCTGNEATLAACTSNGWGVTDCKHTEDVGVVCSDKRIPGFKFDNSLINQIENLNIQVEDIRIRAILSTYRKRTPVMEGYVEVKEGKTWKQICDKHWTAKNSRVVCGMFGFPGERTYNTKVYKMFASRRKQRYWPFSMDCTGTEAHISSCKLGPQVSLDPMKNVTCENGLPAVVSCV
# notes: LOXL2, SRCR domains 1-2, residues 58-302; also called SRCR 1-2 domain; source: expressed as recombinant protein as previously described [62]
# B2: lysyl oxidase-like 2 (LOXL2), full-length recombinant protein (enzyme, UniProt Q9Y4K0 26-774, looked up)
# chain: QYDSWPHYPEYFQQPAPEYHQPQAPANVAKIQLRLAGQKRKHSEGRVEVYYDGQWGTVCDDDFSIHAAHVVCRELGYVEAKSWTASSSYGKGEGPIWLDNLHCTGNEATLAACTSNGWGVTDCKHTEDVGVVCSDKRIPGFKFDNSLINQIENLNIQVEDIRIRAILSTYRKRTPVMEGYVEVKEGKTWKQICDKHWTAKNSRVVCGMFGFPGERTYNTKVYKMFASRRKQRYWPFSMDCTGTEAHISSCKLGPQVSLDPMKNVTCENGLPAVVSCVPGQVFSPDGPSRFRKAYKPEQPLVRLRGGAYIGEGRVEVLKNGEWGTVCDDKWDLVSASVVCRELGFGSAKEAVTGSRLGQGIGPIHLNEIQCTGNEKSIIDCKFNAESQGCNHEEDAGVRCNTPAMGLQKKLRLNGGRNPYEGRVEVLVERNGSLVWGMVCGQNWGIVEAMVVCRQLGLGFASNAFQETWYWHGDVNSNKVVMSGVKCSGTELSLAHCRHDGEDVACPQGGVQYGAGVACSETAPDLVLNAEMVQQTTYLEDRPMFMLQCAMEENCLSASAAQTDPTTGYRRLLRFSSQIHNNGQSDFRPKNGRHAWIWHDCHRHYHSMEVFTHYDLLNLNGTKVAEGHKASFCLEDTECEGDIQKNYECANFGDQGITMGCWDMYRHDIDCQWVDITDVPPGDYLFQVVINPNFEVAESDYSNNIMKCRSRYDGHRIWMYNCHIGGSFSEETEKKFEHFSGLLNNQLSPQ
# notes: lysyl oxidase-like 2 (LOXL2), full-length recombinant protein made in the laboratory; As a secreted recombinant protein it probably lacks its signal peptide (surmise); also called full-length LOXL2; soluble LOXL2; source: expressed as recombinant protein as previously described [62]
# How the values were obtained:
# [1] = biological target: C-terminal NC1 domain of collagen XVIII (UniProt P39060); assay: SPR; SPR imaging, BIAcore Flexchip; proteins spotted in triplicate (physically adsorbed) on Gold Affinity chips, blocked with buffer containing mammalian proteins; LOXL2, SRCR 1-2 and SRCR 1-4 (500 nM) recirculated over the arrays for 20 min; both purified
# [2] = biological target: fibroblast growth factor-2 (FGF2) (UniProt P09038); assay: as above
Molecule,binding [1],binding [2]
LOXL2 N-terminal scavenger receptor cysteine-rich domains SRCR 1-4 (residues 58-544) (from UniProt Q9Y4K0 58-544) (domain or fragment),binds,
B1,binds,
B2,no binding (tested: 500 nM),binds

# Results are given in words; binding and its absence hold for the method and conditions named. Binding can be weak; no strength is given.
